Reference: doi:10.1101/2025.05.30.657000

By UniProt entry, the sequences of proteins in these tests, tags left out.
UniProt P10415: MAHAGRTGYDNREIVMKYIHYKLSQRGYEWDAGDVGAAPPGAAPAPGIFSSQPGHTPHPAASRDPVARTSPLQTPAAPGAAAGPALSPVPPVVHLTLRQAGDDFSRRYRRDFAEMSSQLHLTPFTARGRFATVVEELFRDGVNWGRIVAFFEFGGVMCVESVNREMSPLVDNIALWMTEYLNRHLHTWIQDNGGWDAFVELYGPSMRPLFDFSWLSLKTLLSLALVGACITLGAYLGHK

target: BirA*-Bcl-2 (UniProt P10415); test: proximity labelling

binding | Binder
binds | syntaxin 5 (protein, UniProt Q13190 1-355) MIPRKRYGSKNTDQGVYLGLSKTQVLSPATAGSSSSDIAPLPPPVTLVPPPPDTMSCRDRTQEFLSACKSLQTRQNGIQTNKPALRAVRQRSEFTLMAKRIGKDLSNTFAKLEKLTILAKRKSLFDDKAVEIEELTYIIKQDINSLNKQIAQLQDFVRAKGSQSGRHLQTHSNTIVVSLQSKLASMSNDFKSVLEVRTENLKQQRSRREQFSRAPVSALPLAPNHLGGGAVVLGAESHASKDVAIDMMDSRTSQQLQLIDEQDSYIQSRADTMQNIESTIVELGSIFQQLAHMVKEQEETIQRIDENVLGAQLDVEAAHSEILKYFQSVTSNRWLMVKIFLILIVFFIIFVVFLA
binds | TMEM201 (protein, UniProt Q5SNT2 1-666) MEGVSALLARCPTAGLAGGLGVTACAAAGVLLYRIARRMKPTHTMVNCWFCNQDTLVPYGNRNCWDCPHCEQYNGFQENGDYNKPIPAQYLEHLNHVVSSAPSLRDPSQPQQWVSSQVLLCKRCNHHQTTKIKQLAAFAPREEGRYDEEVEVYRHHLEQMYKLCRPCQAAVEYYIKHQNRQLRALLLSHQFKRREADQTHAQNFSSAVKSPVQVILLRALAFLACAFLLTTALYGASGHFAPGTTVPLALPPGGNGSATPDNGTTPGAEGWRQLLGLLPEHMAEKLCEAWAFGQSHQTGVVALGLLTCLLAMLLAGRIRLRRIDAFCTCLWALLLGLHLAEQHLQAASPSWLDTLKFSTTSLCCLVGFTAAVATRKATGPRRFRPRRFFPGDSAGLFPTSPSLAIPHPSVGGSPASLFIPSPPSFLPLANQQLFRSPRRTSPSSLPGRLSRALSLGTIPSLTRADSGYLFSGSRPPSQVSRSGEFPVSDYFSLLSGSCPSSPLPSPAPSVAGSVASSSGSLRHRRPLISPARLNLKGQKLLLFPSPPGEAPTTPSSSDEHSPHNGSLFTMEPPHVPRKPPLQDVKHALDLRSKLERGSACSNRSIKKEDDSSQSSTCVVDTTTRGCSEEAATWRGRFGPSLVRGLLAVSLAANALFTSVFLYQSLR
binds | Ankle2 (protein, UniProt Q86XL3 1-938) MLWPRLAAAEWAALAWELLGASVLLIAVRWLVRRLGPRPGGLGRSGTPVPPPSAAAAPASGEMTMDALLARLKLLNPDDLREEIVKAGLKCGPITSTTRFIFEKKLAQALLEQGGRLSSFYHHEAGVTALSQDPQRILKPAEGNPTDQAGFSEDRDFGYSVGLNPPEEEAVTSKTCSVPPSDTDTYRAGATASKEPPLYYGVCPVYEDVPARNERIYVYENKKEALQAVKMIKGSRFKAFSTREDAEKFARGICDYFPSPSKTSLPLSPVKTAPLFSNDRLKDGLCLSESETVNKERANSYKNPRTQDLTAKLRKAVEKGEEDTFSDLIWSNPRYLIGSGDNPTIVQEGCRYNVMHVAAKENQASICQLTLDVLENPDFMRLMYPDDDEAMLQKRIRYVVDLYLNTPDKMGYDTPLHFACKFGNADVVNVLSSHHLIVKNSRNKYDKTPEDVICERSKNKSVELKERIREYLKGHYYVPLLRAEETSSPVIGELWSPDQTAEASHVSRYGGSPRDPVLTLRAFAGPLSPAKAEDFRKLWKTPPREKAGFLHHVKKSDPERGFERVGRELAHELGYPWVEYWEFLGCFVDLSSQEGLQRLEEYLTQQEIGKKAQQETGEREASCRDKATTSGSNSISVRAFLDEDDMSLEEIKNRQNAARNNSPPTVGAFGHTRCSAFPLEQEADLIEAAEPGGPHSSRNGLCHPLNHSRTLAGKRPKAPRGEEAHLPPVSDLTVEFDKLNLQNIGRSVSKTPDESTKTKDQILTSRINAVERDLLEPSPADQLGNGHRRTESEMSARIAKMSLSPSSPRHEDQLEVTREPARRLFLFGEEPSKLDQDVLAALECADVDPHQFPAVHRWKSAVLCYSPSDRQSWPSPAVKGRFKSQLPDLSGPHSYSPGRNSVAGSNPAKPGLGSPGRYSPVHGSQLRRMARLAELAAL

Results are given in words; binding and its absence hold for the method and conditions named. In cells and extracts the contact can be indirect. Here binding means that the protein was enriched with, or labelled near, the bait; the list need not be complete.
